Data from paper PMC11698036.
These are yes or no findings as the source states them, for the method shown. Some entries that bind do so weakly or less than the wild type. Sequences can lack the tags named with a protein.

The chains behind the UniProt entries cited, without tags or fusion partners. Residues count along the entry.
UniProt P35579, residues 1339-1960: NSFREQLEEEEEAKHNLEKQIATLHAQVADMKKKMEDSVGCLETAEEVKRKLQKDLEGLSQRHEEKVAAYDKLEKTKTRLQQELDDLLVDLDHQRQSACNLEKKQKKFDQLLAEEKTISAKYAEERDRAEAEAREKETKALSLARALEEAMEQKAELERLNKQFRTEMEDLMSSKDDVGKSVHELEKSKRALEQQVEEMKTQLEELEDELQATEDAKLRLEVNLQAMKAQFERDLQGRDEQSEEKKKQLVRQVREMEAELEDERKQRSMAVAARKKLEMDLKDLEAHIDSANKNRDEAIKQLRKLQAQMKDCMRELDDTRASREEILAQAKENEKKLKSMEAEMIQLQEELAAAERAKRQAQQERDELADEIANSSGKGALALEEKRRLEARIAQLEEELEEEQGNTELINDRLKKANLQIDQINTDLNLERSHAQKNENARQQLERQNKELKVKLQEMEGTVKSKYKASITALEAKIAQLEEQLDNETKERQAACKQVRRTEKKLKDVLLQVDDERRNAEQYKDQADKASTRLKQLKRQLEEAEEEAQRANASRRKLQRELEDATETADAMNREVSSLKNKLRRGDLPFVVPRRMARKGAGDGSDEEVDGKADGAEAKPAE

How the values were obtained:
[1] = target: GST-tagged rod domain of myosin IIA (GST–MyoIIA-Rod) (UniProt P35579); assay: pull-down; GST–MyoIIA-Rod immobilised on glutathione resin; recombinant proteins in equimolar ratios in septin buffer (10 mM Tris-HCl, 2 mM MgCl2, 300 mM KCl) with 1 mM DTT and 0.05% Tween 20, 4°C, 90 min; SDS elution; Coomassie gel and His blot; both purified
[2] = target: GST-tagged rod domain of myosin IIA (GST–MyoIIA-Rod) (UniProt P35579); assay: pull-down; three-way assay: His–Borg5 pre-incubated with septin 9-6-7-2 complexes, then bound to GST–MyoIIA-Rod immobilised on glutathione resin; septin buffer (300 mM KCl), 4°C; Coomassie gel and His blot; two experiments; both purified
[3] = target: septin 9–septin 6–septin 7–septin 2 complex (His–SEPT2/6/7/9–Strep) (UniProt P42208); assay: pull-down; three-way assay: His–MyoIIA-Rod pre-incubated with His–Borg5, then bound to His–SEPT2/6/7/9–Strep immobilised on Strep-Tactin Sepharose; septin buffer (300 mM KCl), 4°C; biotin elution; His blot; four experiments; both purified
[4] = target: septin 9–septin 6–septin 7–septin 2 complex (His–SEPT2/6/7/9–Strep) (UniProt P42208); assay: pull-down; His–SEPT2/6/7–Strep or His–SEPT2/6/7/9–Strep immobilised on Strep-Tactin Sepharose; His–Borg5 in septin buffer (300 mM KCl) with 1 mM DTT and 0.05% Tween 20, 4°C, 90 min; elution with 5 mM D-biotin; His blot; both purified
[5] = target: T1, septin 2–septin 6–septin 7 complex (His–SEPT2/6/7–Strep) (UniProt P42208); assay: as above
T1 sequence 1: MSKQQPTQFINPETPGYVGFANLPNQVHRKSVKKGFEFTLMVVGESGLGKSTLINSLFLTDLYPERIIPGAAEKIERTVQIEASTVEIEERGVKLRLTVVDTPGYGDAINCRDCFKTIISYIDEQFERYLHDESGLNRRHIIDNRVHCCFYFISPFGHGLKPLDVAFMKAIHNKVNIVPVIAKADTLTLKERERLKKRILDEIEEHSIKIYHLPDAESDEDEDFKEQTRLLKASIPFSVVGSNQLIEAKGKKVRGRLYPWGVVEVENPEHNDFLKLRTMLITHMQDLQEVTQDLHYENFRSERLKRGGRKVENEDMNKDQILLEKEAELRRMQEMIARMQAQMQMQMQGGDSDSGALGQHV
T1 sequence 2: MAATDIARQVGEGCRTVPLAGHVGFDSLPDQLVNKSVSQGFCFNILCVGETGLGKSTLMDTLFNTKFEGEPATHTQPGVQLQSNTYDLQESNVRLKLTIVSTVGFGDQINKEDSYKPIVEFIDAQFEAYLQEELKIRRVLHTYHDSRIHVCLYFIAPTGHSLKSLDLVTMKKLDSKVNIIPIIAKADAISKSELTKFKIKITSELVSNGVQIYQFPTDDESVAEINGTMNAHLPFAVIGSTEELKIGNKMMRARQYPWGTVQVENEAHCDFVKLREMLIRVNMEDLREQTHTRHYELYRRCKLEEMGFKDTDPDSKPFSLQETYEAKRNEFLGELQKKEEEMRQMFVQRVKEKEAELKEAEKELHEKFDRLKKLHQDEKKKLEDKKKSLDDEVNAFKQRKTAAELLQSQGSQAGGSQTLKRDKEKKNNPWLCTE
T1 sequence 3: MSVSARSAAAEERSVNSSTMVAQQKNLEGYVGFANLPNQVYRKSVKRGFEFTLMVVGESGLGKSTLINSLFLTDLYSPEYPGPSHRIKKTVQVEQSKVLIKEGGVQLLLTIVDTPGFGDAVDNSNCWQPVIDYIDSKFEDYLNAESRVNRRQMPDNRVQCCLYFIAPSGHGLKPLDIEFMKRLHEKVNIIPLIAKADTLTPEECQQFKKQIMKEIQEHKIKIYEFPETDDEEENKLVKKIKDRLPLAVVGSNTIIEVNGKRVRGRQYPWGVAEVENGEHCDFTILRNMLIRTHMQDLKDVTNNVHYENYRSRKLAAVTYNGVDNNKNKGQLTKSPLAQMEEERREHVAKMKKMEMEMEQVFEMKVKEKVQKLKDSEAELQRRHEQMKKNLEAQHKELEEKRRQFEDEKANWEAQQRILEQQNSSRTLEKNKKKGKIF

binding [1]: binds
binding [2]: binds
binding [3]: binds
binding [4]: binds
binding [5]: binds
B1: His–Borg5 (recombinant mouse Borg5, Cdc42EP1) (protein, UniProt Q91W92 1-409)
chain: MPGPQGGTGAPTMSLGKLSPVGWVSSSHGKRRLTADMISPPLGDFRHTMHVGRGGDVFGDTSFLSNHGGRSGNTHRSPRSFLARKLQQVRRVGVPPRRMASPAAPSPAPPPISPIIKNAISLPQLNQATYDSLVMGKLSFDSTPASSTDGHSGYGLESGFCTISRLPRVEKHSNRDRDRDPDHSQDREQSSFPSEPTPNPELRRSDSLLSFRFDLDLGPSLLSELLGVMSLSEAPAAETPVPTANPPAPAANPAPTAKPPAHAITTLDAVTSLPASAVTSLPAPAAASSPSRGHFPNGVTSVLGPAAEAKPSPVGEGPQVPSNMTFDRHGASWGASRASWGASRASRHYTEMDARRELAGVLPQVHGSWESLNEDWSTPPASVRAPVPTSVQVNAFEFADAEEDDEVKV
